This is one part of the list.
Tests used:
Assay in all cases: log2 fold change, soluble protein after heating vs DMSO (PISA); higher = thermal stabilisation; K562 lysate, 10 uM; active = over 0.2 and 3.5 SD of the protein, either way, in both replicates (recomputed)
[1] = compound: NCC(=O)Nc1ccc(-n2nc(C(F)(F)F)cc2-c2ccc3c(ccc4ccccc43)c2)cc1
Method in brief: (§1)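 To prepare the extract, K562 pellets were dounce-homogenised in PBS pH 7.4 with 1 mM MgCl2, giving crude material at 1 mg/mL protein. This was treated with 10 μM compound for 30 min, then heated in aliquots for 3 min over 48°C-58°C before pooling and addition of NP-40 to 0.5% at 4°C. Centrifugation at 21,000xg for 90 min left soluble protein in the supernatant, which TMTpro 16plex LC-MS/MS quantified with equalised channel sums. Results are log-two fold changes in thermal stability compared with solvent controls, from duplicates.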

Sequences of proteins named here, by UniProt entry; tags and fusion partners are left off. A change or cut given only in a name is not applied to a line headed by its entry.
UniProt Q5VT25: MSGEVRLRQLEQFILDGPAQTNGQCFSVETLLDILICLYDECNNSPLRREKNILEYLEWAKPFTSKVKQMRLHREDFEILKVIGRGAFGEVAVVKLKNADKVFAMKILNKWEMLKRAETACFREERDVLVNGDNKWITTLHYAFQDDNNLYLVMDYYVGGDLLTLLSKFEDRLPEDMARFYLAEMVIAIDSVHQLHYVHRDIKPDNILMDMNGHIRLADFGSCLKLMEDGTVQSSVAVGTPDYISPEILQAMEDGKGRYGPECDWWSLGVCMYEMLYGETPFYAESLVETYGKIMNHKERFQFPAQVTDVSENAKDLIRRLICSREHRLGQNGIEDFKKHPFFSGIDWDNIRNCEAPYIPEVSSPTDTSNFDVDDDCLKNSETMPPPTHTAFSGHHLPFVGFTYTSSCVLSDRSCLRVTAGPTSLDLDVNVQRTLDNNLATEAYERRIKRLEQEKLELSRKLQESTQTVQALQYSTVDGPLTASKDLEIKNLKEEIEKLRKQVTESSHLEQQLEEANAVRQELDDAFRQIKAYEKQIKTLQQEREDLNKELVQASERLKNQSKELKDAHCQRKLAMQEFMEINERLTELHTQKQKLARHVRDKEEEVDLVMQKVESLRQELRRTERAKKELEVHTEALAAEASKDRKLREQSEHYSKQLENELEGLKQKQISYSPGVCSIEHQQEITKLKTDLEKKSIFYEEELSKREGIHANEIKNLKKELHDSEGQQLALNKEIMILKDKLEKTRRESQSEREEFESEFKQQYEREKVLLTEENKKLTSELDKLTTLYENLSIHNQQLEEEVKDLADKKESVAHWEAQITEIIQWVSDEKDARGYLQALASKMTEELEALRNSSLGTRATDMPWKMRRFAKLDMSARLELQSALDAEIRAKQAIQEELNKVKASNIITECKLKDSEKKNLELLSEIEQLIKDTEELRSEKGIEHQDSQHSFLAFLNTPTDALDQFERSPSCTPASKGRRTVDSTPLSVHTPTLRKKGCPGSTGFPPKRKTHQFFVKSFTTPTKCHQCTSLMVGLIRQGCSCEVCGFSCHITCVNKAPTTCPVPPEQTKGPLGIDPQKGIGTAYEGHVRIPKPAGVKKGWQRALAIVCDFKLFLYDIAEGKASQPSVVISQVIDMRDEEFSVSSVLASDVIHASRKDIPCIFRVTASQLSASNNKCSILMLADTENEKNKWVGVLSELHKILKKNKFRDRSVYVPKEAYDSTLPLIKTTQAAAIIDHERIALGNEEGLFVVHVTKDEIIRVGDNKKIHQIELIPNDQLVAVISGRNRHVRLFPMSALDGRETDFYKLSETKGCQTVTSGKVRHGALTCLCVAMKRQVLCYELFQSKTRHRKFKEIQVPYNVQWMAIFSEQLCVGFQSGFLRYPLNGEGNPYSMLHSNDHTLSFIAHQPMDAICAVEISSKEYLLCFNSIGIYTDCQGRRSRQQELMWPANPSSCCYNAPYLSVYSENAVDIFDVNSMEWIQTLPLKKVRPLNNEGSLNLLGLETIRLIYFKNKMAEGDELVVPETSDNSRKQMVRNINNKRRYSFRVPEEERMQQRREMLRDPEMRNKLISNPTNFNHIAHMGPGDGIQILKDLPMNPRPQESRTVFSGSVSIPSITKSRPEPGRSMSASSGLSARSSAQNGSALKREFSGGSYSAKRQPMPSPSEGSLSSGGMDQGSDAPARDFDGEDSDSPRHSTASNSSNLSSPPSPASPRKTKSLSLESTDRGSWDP
UniProt Q9BUX1: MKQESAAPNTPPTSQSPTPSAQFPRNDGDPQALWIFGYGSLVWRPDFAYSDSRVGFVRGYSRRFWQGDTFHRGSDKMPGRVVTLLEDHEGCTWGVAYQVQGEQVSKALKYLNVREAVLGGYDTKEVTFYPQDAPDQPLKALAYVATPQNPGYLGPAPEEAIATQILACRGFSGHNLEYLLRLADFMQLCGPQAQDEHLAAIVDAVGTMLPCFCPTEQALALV
UniProt O15519, whole entry, looked up: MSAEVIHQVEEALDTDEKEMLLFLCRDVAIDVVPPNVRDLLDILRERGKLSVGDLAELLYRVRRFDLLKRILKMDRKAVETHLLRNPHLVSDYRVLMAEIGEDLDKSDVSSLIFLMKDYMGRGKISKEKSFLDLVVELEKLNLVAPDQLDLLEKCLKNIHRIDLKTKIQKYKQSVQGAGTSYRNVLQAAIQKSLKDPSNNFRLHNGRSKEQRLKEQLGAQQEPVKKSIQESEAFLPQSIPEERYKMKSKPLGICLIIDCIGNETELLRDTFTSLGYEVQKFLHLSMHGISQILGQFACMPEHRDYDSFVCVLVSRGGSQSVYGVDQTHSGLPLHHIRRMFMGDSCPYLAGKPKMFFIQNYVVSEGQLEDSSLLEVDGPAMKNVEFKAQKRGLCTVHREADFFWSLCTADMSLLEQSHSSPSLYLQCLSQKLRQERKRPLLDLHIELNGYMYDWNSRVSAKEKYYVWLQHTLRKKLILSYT
UniProt Q711Q0: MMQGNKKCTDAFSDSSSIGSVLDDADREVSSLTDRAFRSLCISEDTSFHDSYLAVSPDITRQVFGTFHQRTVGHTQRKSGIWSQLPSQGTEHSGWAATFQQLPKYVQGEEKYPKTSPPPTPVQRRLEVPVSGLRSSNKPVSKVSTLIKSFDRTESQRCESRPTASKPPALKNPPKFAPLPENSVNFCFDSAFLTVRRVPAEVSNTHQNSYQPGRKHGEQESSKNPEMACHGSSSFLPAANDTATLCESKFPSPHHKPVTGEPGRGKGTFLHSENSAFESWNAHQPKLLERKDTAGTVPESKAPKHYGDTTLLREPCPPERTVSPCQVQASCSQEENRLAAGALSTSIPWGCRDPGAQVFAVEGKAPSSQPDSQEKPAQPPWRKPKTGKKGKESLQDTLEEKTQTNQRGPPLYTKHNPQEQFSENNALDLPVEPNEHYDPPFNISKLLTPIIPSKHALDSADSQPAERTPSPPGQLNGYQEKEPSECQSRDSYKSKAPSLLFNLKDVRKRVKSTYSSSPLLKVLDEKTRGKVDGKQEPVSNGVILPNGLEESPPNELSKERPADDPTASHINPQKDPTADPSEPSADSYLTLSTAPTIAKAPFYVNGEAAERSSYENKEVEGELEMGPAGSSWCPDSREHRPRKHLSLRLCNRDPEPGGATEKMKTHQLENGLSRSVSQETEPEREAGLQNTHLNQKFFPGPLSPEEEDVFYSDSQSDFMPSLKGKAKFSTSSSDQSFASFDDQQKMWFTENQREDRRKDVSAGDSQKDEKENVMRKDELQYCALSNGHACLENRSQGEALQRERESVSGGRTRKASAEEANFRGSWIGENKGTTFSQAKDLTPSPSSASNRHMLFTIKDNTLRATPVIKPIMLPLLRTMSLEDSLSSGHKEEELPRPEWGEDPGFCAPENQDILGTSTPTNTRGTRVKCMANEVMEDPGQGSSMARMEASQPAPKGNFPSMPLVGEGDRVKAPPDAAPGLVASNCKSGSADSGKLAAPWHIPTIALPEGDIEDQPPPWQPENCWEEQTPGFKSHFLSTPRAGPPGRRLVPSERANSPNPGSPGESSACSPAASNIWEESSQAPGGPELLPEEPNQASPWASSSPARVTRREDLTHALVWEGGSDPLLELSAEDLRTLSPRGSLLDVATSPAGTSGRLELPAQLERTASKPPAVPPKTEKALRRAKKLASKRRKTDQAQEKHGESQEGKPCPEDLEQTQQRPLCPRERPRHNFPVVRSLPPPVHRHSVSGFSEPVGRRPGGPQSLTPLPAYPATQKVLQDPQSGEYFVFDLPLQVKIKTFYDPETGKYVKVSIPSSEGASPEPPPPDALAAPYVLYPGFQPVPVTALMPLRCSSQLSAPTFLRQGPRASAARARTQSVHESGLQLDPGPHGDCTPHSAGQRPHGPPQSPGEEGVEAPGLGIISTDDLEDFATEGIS
UniProt Q9Y5P4: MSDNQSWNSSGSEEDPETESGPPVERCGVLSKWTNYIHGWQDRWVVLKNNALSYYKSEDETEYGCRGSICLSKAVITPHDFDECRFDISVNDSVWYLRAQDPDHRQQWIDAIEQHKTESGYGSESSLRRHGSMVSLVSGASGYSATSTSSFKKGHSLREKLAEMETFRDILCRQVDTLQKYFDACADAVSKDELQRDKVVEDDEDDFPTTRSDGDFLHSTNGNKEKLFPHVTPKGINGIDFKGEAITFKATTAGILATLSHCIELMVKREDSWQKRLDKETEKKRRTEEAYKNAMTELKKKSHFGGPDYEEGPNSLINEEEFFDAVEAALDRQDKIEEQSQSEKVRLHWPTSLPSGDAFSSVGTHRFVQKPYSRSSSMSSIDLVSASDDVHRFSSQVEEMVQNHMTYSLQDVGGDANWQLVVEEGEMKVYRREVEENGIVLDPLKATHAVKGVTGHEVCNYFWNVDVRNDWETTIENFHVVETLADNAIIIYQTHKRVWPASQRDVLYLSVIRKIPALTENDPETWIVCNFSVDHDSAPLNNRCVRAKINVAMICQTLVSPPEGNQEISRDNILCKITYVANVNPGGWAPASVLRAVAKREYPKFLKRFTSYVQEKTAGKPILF
UniProt Q00587: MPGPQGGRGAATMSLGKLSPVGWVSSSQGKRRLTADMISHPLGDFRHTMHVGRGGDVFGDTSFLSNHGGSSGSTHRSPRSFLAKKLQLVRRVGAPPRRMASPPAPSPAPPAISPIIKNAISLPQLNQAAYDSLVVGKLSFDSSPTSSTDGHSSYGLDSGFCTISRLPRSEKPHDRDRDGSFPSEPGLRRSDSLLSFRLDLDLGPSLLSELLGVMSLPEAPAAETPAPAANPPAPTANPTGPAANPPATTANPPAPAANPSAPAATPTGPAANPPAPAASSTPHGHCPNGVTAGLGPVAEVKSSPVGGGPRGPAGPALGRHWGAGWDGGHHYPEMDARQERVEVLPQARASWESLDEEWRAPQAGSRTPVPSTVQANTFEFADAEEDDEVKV
UniProt Q6NVV7: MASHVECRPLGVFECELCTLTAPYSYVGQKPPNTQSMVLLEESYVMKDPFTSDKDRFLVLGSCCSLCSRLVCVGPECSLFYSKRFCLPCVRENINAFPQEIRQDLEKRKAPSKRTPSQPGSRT
UniProt P53567: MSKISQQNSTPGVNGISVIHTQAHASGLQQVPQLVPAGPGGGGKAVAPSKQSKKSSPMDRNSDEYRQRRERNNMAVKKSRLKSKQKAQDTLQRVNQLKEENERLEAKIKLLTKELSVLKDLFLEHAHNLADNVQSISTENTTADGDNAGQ
UniProt Q9UNH5: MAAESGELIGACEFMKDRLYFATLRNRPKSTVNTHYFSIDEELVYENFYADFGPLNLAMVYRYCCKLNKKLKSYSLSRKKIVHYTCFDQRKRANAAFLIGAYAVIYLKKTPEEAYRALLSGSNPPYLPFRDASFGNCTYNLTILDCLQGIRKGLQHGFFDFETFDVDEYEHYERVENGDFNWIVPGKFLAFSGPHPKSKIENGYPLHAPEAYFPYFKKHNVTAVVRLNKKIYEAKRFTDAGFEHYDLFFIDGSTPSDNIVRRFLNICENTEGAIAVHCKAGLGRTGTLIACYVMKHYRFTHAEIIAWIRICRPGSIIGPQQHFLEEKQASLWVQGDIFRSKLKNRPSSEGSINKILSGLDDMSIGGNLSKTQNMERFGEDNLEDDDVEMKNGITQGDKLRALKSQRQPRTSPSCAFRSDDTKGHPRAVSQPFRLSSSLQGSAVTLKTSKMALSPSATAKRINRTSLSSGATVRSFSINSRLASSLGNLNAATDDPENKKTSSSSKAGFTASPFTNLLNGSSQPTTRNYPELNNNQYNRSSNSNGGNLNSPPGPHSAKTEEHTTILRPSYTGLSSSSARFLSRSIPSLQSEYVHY
UniProt Q9NRR8: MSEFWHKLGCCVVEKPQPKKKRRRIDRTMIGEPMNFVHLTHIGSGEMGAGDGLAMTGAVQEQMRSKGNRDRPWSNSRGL
UniProt Q96MT8: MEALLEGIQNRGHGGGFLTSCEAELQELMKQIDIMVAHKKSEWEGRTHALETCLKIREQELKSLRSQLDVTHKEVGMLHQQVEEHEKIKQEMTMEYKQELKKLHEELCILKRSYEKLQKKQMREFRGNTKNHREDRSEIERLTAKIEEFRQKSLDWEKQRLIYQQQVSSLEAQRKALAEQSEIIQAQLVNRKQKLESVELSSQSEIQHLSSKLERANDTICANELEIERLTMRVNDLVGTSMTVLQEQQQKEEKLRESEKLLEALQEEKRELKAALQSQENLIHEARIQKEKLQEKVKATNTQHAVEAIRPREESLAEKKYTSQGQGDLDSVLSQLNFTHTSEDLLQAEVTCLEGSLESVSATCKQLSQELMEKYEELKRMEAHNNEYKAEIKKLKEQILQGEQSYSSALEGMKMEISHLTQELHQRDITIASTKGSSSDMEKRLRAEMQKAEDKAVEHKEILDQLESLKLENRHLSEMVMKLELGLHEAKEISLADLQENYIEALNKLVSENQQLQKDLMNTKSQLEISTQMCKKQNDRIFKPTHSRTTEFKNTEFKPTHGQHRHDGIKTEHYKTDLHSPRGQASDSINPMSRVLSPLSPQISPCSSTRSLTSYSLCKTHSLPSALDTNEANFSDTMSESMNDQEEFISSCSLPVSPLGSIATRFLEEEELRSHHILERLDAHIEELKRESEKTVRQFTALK

[2] = compound: O=C(CCCCCCC(=O)Nc1ccccc1)NO [vorinostat]
Method in brief: as §1

[3] = compound: O=C(O)c1ccc2c(c1)nc(Nc1cccc(Cl)c1)c1ccncc12 [silmitasertib]
Method in brief: as §1

[4] = compound: O=C1NC(=O)C(c2cnc3ccccn23)=C1c1cn2c3c(cc(F)cc13)CN(C(=O)N1CCCCC1)CC2
Method in brief: as §1

[5] = compound: c1cn2cc(-c3ccc4cn[nH]c4c3)nc(Nc3ccc(N4CCOCC4)cc3)c2n1 [entospletinib]
Method in brief: as §1

| Target | log2 fold change [1] | log2 fold change [2] | log2 fold change [3] | log2 fold change [4] | log2 fold change [5] |
| --- | --- | --- | --- | --- | --- |
| CDK6 (UniProt Q00534) | inactive: 0.012 | inactive: 0.025 | inactive: 0.041 | inactive: 0.114 | inactive: -0.013 |
| CDC42BPA isoform 6 (UniProt Q5VT25) | inactive: -0.008 | active: -0.224 | inactive: 0.018 | inactive: 0.001 | inactive: 0 |
| CDC45 isoform 3 (UniProt O75419) | inactive: -0.021 | active: -0.487 | inactive: 0.012 | inactive: 0.015 | inactive: 0.03 |
| CEP55 (UniProt Q53EZ4) | inactive: 0.039 | inactive: -0.206 | inactive: -0.002 | inactive: 0.018 | inactive: -0.117 |
| CHAC1 (UniProt Q9BUX1) | inactive: -0.362 |  |  | inactive: -0.084 |  |
| CEP170B (UniProt Q9Y4F5) | inactive: 0.049 |  |  | inactive: 0 | inactive: -0.107 |
| CELF2 isoform 3 (UniProt O95319) | inactive: 0.036 | inactive: -0.028 | inactive: -0.012 | inactive: -0.041 | inactive: 0.033 |
| CDC37 (UniProt K7EL68) | inactive: 0.001 |  |  | inactive: 0.005 |  |
| CES2 isoform 4 (UniProt O00748) | inactive: 0.049 | inactive: 0.307 | inactive: -0.093 | inactive: 0.177 | inactive: -0.034 |
| CENPV (UniProt Q7Z7K6) | inactive: 0.396 |  |  | inactive: 0.039 | inactive: 0.084 |
| CEP85 isoform 2 (UniProt Q6P2H3) | inactive: 0.012 | inactive: -0.092 | inactive: 0.007 | inactive: 0.056 | inactive: -0.002 |
| CEMIP2 (UniProt Q9UHN6) | inactive: -0.125 | inactive: 0.153 | inactive: -0.013 | inactive: -0.006 | inactive: 0.017 |
| CDC42 (UniProt P60953) | inactive: -0.073 | inactive: 0.017 | inactive: 0.061 | inactive: 0.074 | inactive: -0.063 |
| CDCP1 (UniProt Q9H5V8) | inactive: 0.015 | inactive: 0.049 | inactive: 0.018 | inactive: 0.016 | inactive: -0.029 |
| CFLAR (UniProt O15519) | inactive: 0.006 |  |  | inactive: 0.001 | inactive: 0.011 |
| CENPO (UniProt Q9BU64) |  | inactive: 0.028 | inactive: 0.079 |  |  |
| CDC42EP2 (UniProt O14613) | inactive: -0.139 |  |  | inactive: -0.022 |  |
| CDKL5 (UniProt O76039) | inactive: 0.037 |  |  | inactive: 0.011 | inactive: 0.017 |
| CDC25C (UniProt P30307) | inactive: -0.019 | active: -0.271 | inactive: 0.009 | inactive: 0.026 | inactive: -0.01 |

Twelve neighbouring records from above, for reference:

| Target | log2 fold change [1] | log2 fold change [2] | log2 fold change [3] | log2 fold change [4] | log2 fold change [5] |
| --- | --- | --- | --- | --- | --- |
| CDC42BPA isoform 6 (UniProt Q5VT25) | inactive: -0.008 | active: -0.224 | inactive: 0.018 | inactive: 0.001 | inactive: 0 |
| CDC45 isoform 3 (UniProt O75419) | inactive: -0.021 | active: -0.487 | inactive: 0.012 | inactive: 0.015 | inactive: 0.03 |
| CEP55 (UniProt Q53EZ4) | inactive: 0.039 | inactive: -0.206 | inactive: -0.002 | inactive: 0.018 | inactive: -0.117 |
| CHAC1 (UniProt Q9BUX1) | inactive: -0.362 |  |  | inactive: -0.084 |  |
| CEP170B (UniProt Q9Y4F5) | inactive: 0.049 |  |  | inactive: 0 | inactive: -0.107 |
| CELF2 isoform 3 (UniProt O95319) | inactive: 0.036 | inactive: -0.028 | inactive: -0.012 | inactive: -0.041 | inactive: 0.033 |
| CDC37 (UniProt K7EL68) | inactive: 0.001 |  |  | inactive: 0.005 |  |
| CES2 isoform 4 (UniProt O00748) | inactive: 0.049 | inactive: 0.307 | inactive: -0.093 | inactive: 0.177 | inactive: -0.034 |
| CENPV (UniProt Q7Z7K6) | inactive: 0.396 |  |  | inactive: 0.039 | inactive: 0.084 |
| CEP85 isoform 2 (UniProt Q6P2H3) | inactive: 0.012 | inactive: -0.092 | inactive: 0.007 | inactive: 0.056 | inactive: -0.002 |
| CEMIP2 (UniProt Q9UHN6) | inactive: -0.125 | inactive: 0.153 | inactive: -0.013 | inactive: -0.006 | inactive: 0.017 |
| CDC42 (UniProt P60953) | inactive: -0.073 | inactive: 0.017 | inactive: 0.061 | inactive: 0.074 | inactive: -0.063 |

Continuation.

| Target | log2 fold change [1] | log2 fold change [2] | log2 fold change [3] | log2 fold change [4] | log2 fold change [5] |
| --- | --- | --- | --- | --- | --- |
| CENPP (UniProt Q6IPU0) | inactive: 0.034 | inactive: 0.062 | inactive: 0.02 | inactive: -0.015 | inactive: 0.006 |
| CEP120 (UniProt Q8N960) | inactive: 0.261 | inactive: 0.042 | inactive: -0.075 | inactive: 0.135 | inactive: -0.13 |
| CDCA8 (UniProt Q53HL2) | inactive: 0.066 | inactive: 0.13 | inactive: -0.093 |  | inactive: 0.112 |
| CD9 (UniProt P21926) | inactive: -0.02 |  |  |  | inactive: 0.12 |
| CFH (UniProt P08603) | inactive: 0.005 | inactive: 0.149 | inactive: -0.045 | inactive: 0.039 | inactive: -0.03 |
| CEFIP (UniProt Q711Q0) | inactive: -0.16 | inactive: -0.152 | inactive: 0.157 | inactive: 0.052 | inactive: -0.049 |
| CDV3 (UniProt Q9UKY7) | inactive: -0.051 | inactive: 0.122 | inactive: -0.034 | inactive: 0.001 | inactive: 0.039 |
| CDK7 (UniProt P50613) | inactive: 0.029 | inactive: -0.067 | inactive: -0.021 | inactive: 0.03 | inactive: 0.019 |
| CFDP1 (UniProt Q9UEE9) | inactive: -0.009 | inactive: 0.095 | inactive: -0.05 | inactive: -0.078 | inactive: -0.012 |
| CEP128 (UniProt Q6ZU80) | inactive: 0.017 |  |  |  | inactive: -0.081 |
| CERT isoform 3 (UniProt Q9Y5P4) | inactive: -0.012 | inactive: -0.002 | inactive: 0.01 | inactive: -0.036 | inactive: 0.015 |
| CDC27 isoform 2 (UniProt P30260) | inactive: 0.001 | inactive: -0.098 | inactive: -0.004 | inactive: 0.016 | inactive: 0.006 |
| CDK1 (UniProt P06493) | inactive: 0.029 | inactive: -0.049 |  | inactive: -0.055 | inactive: 0.006 |
| CDC42EP1 (UniProt Q00587) | inactive: -0.036 | inactive: -0.249 | inactive: -0.04 | inactive: 0.019 | inactive: -0.031 |
| CDNF (UniProt Q49AH0) |  |  |  | inactive: 0.092 | inactive: -0.051 |
| CENPB (UniProt P07199) |  |  |  |  | inactive: 0.292 |
| CEP78 isoform 2 (UniProt Q5JTW2) |  | inactive: -0.071 | inactive: 0.054 | inactive: -0.068 |  |
| CEP164 (UniProt Q9UPV0) |  | inactive: -0.007 | inactive: 0.022 |  |  |
| CEP295 isoform 3 (UniProt Q9C0D2) |  | inactive: -0.004 | inactive: 0.076 | inactive: -0.076 | inactive: 0.087 |

| Target | log2 fold change [1] | log2 fold change [2] | log2 fold change [3] | log2 fold change [4] | log2 fold change [5] |
| --- | --- | --- | --- | --- | --- |
| CDKN3 (UniProt Q16667) |  |  |  |  | inactive: -0.036 |
| CDPF1 (UniProt Q6NVV7) |  |  |  | inactive: -0.059 |  |
| CFL1 (UniProt E9PP50) |  |  |  |  | inactive: 0.225 |
| CEP57L1 (UniProt Q8IYX8) |  | inactive: -0.23 | inactive: 0.133 | inactive: -0.044 | inactive: -0.029 |
| CENPT (UniProt Q96BT3) |  | inactive: 0.026 | inactive: -0.153 |  |  |
| CENPX (UniProt A8MT69) |  |  |  | inactive: -0.128 |  |
| CERS5 (UniProt Q8N5B7) |  | inactive: 0.057 | inactive: 0.006 | inactive: 0.01 | inactive: -0.001 |
| CEP68 (UniProt Q76N32) |  | inactive: -0.094 | inactive: 0.021 |  | inactive: -0.172 |
| CEBPG (UniProt P53567) |  |  |  | inactive: 0.139 |  |
| CDK11A (UniProt Q9UQ88) |  | inactive: -0.329 | inactive: 0.049 | inactive: -0.012 |  |
| CDC25A (UniProt P30304) |  | active: -1.01 | inactive: 0.084 | inactive: -0.172 |  |
| CDC14A isoform 2 (UniProt Q9UNH5) |  |  |  | inactive: -0.11 |  |
| CDC6 (UniProt Q99741) |  | inactive: -0.045 | inactive: 0.026 | inactive: -0.23 |  |
| CDC42SE1 (UniProt Q9NRR8) |  |  |  | inactive: -0.044 |  |
| CDAN1 (UniProt H3BPZ6) |  |  |  | inactive: 0.006 |  |
| CEP63 (UniProt Q96MT8) |  | inactive: -0.146 | inactive: -0.151 |  | inactive: 0.008 |
| CEP57 (UniProt Q86XR8) |  | inactive: 0.029 | inactive: -0.011 |  | inactive: -0.095 |
| CEP72 (UniProt Q9P209) |  | inactive: -0.026 | inactive: 0.12 |  |  |
| CENPC (UniProt Q03188) |  | inactive: 0.069 | inactive: 0 |  | inactive: 0.006 |

Source: the supplement of paper PMC10849652
